Here are results for two sequences from publication PMC13043726.

Amino acid sequences for entries named in this document (tags omitted). A change or cut given only in a name is not applied to a line headed by its entry.
UniProt P23246: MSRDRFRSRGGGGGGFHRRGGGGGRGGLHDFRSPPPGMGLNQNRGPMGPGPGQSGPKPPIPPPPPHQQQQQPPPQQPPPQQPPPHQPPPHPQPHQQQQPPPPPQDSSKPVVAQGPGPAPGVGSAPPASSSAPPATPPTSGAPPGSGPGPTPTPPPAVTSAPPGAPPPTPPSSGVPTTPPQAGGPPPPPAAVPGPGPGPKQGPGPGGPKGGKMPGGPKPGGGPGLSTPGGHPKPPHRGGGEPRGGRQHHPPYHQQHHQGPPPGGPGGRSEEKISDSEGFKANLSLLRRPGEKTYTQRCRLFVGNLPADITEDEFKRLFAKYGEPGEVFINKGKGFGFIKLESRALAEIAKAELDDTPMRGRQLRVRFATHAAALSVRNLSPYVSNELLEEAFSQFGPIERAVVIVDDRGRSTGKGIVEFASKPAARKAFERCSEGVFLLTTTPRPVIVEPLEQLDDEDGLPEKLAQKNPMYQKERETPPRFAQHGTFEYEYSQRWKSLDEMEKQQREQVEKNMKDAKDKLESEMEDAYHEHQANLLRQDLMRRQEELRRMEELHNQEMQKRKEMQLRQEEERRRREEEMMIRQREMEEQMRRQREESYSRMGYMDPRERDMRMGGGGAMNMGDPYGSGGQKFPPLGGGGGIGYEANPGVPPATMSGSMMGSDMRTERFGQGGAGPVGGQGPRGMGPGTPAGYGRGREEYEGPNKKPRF

The exact form of at least one protein or probe is not confirmed. Weaker means in comparison with the reference protein, sequence or condition of that experiment. At least one verdict was read from the data and is not stated in words by the source.

In this series the target is SFPQ full-length (Homo sapiens) (UniProt P23246). Briefly: EMSA. The note with it: EMSA: 10 nM probe, 0-1600 nM SFPQ, 20 mM Tris-HCl pH 7.5, 100 mM KCl, 0.5 mM MgCl2, 0.5 mM EDTA, 0.2 mM DTT, 1% glycerol, room temperature, 30 min (RNaseOUT with RNA); recombinant protein; residues 1-707; protein details: N-terminal His6-myc (per text, vector pNIC-CTHF); label: 5'-6-FAM. A general note: In EMSA bound probe runs differently from free probe, usually more slowly.

For CUACUACCCCCACCC [15-nt ssRNA R1_10], the binding result is given as “binds more weakly”. The value for “CUACUACCCCCACCCUCACAACC [23-nt ssRNA R1_B]” was “binds”.
